Values of other authors in patent publication US20220273015A1, “FORMULATIONS AND USES THEREOF” (priority 2021, published 2022).
At least one compound was matched to its structure with a doubt left.

Tested on: atypical/precancerous stem cells
Settings: used separately or together in one study

SMILES | number of atypical/precancerous stem cells
CC/C=C\C/C=C\C/C=C\C/C=C\C/C=C\C/C=C\CCC(=O)O [DHA, docosahexaenoic acid] | reduced
CC/C=C\C/C=C\C/C=C\C/C=C\C/C=C\CCCC(=O)O [EPA, eicosapentaenoic acid] | reduced
